# Some of the results follow. Repeats are few or missing, and single values can be far off.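 Imaging used 1,536-well plates; nuclei positive for cleaved PARP by antibody were divided by total DNA-stained nuclei to yield the apoptosis fraction. Doses for screening kept most cells viable, and cell lines differ markedly in resting and induced cleaved-PARP levels.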
# Tested on: G361
# Experiment: cleaved PARP positive nuclei fraction relative to DMSO control; melanoma cells; higher = more apoptosis
# Conditions: library dose: low library concentration; 72 h
row,Compound,cleaved PARP positive nuclei fraction
1,"NCC(=O)Nc1ccc(-n2nc(C(F)(F)F)cc2-c2ccc3c(ccc4ccccc43)c2)cc1 + COc1ccc(-c2ccc3c(N4CCOCC4)nc(N4C[C@@H](C)O[C@@H](C)C4)nc3n2)cc1CO [KU0063794] (first compound 1 µM, partner dose 0.02 µM)",91%
2,"COc1cc2c(Oc3ccc4[nH]c(C)cc4c3F)ncnc2cc1OCCCN1CCCC1 [cediranib] + COc1ccc(-c2ccc3c(N4CCOCC4)nc(N4C[C@@H](C)O[C@@H](C)C4)nc3n2)cc1CO [KU0063794] (first compound 0.4 µM, partner dose 0.02 µM)",65.4%
3,"O=S(=O)(c1ccccc1)N(CC(F)(F)F)c1ccc(C(O)(C(F)(F)F)C(F)(F)F)cc1 + CC(C)CCN1c2nc(Nc3cc(F)c(O)c(F)c3)ncc2N(C)C(=O)C1C [BID1870] (first compound 1.4 µM, partner dose 0.2 µM)",72.4%
4,"NCC(=O)Nc1ccc(-n2nc(C(F)(F)F)cc2-c2ccc3c(ccc4ccccc43)c2)cc1 + COc1cc2ncnc(Nc3ccc(Oc4ccccc4)cc3)c2cc1OC [SrcI1] (first compound 1 µM, partner dose 2 µM)",231%
5,"NCC(=O)Nc1ccc(-n2nc(C(F)(F)F)cc2-c2ccc3c(ccc4ccccc43)c2)cc1 + O=C1NC(=O)/C(=C/c2ccc(-c3ccc(F)cc3O)o2)S1 [AS252424] (first compound 1 µM, partner dose 1 µM)",141%
6,"COc1cc2ncnc(Nc3ccc(Oc4ccccc4)cc3)c2cc1OC + c1cc(-c2cnn3cc(-c4ccc(OCCN5CCCCC5)cc4)cnc23)ccn1 [Dorsomorphin] (first compound 2 µM, partner dose 0.4 µM)",93.6%
7,"CCc1ccc(CCOc2ccc(CC3SC(=O)NC3=O)cc2)nc1 (centres undefined) [pioglitazone] + COC(=O)c1sccc1S(=O)(=O)Nc1ccc(Nc2ccccc2)cc1OC [GSK0660] (first compound 2 µM, partner dose 1 µM)",128%
8,"O=C(Nc1ccccc1)c1cc([N+](=O)[O-])ccc1Cl + COc1ccc2c(c1)CCC1C2CCC2(C)C(NCCCCCCN3C(=O)C=CC3=O)CCC12 [U73122] (first compound 2 µM, partner dose 0.4 µM)",42.8%
9,"COc1cc2c(Oc3ccc4[nH]c(C)cc4c3F)ncnc2cc1OCCCN1CCCC1 [cediranib] + O=C1NC(=O)/C(=C/c2ccc(-c3ccc(F)cc3O)o2)S1 [AS252424] (first compound 0.4 µM, partner dose 1 µM)",45.4%
10,"O=C(O)c1ccc(-c2c[nH]c3ncc(-c4ccccc4)cc23)cc1C1CCCC1 + CCc1ccc(CCOc2ccc(CC3SC(=O)NC3=O)cc2)nc1 [pioglitazone] (first compound 0.16 µM, partner dose 2 µM)",122%
11,"COc1cc2ncnc(Nc3ccc(Oc4ccccc4)cc3)c2cc1OC + Oc1cc(-c2nc(-c3ccccc3)[nH]c2-c2ccncc2)ccc1Cl [L779450] (first compound 2 µM, partner dose 0.2 µM)",105%
12,"Oc1nc(-c2ccc(C(F)(F)F)cc2)nc2c1CSCC2 + O=c1cc(-c2cccc3c2Sc2ccccc2S3)oc(N2CCOCC2)c1 [KU55933] (first compound 2 µM, partner dose 1 µM)",92.3%
13,"COc1ccc(-c2ccc3c(N4CCOCC4)nc(N4C[C@@H](C)O[C@@H](C)C4)nc3n2)cc1CO + O=S(=O)(c1ccccc1)N(CC(F)(F)F)c1ccc(C(O)(C(F)(F)F)C(F)(F)F)cc1 [T0901317] (first compound 0.02 µM, partner dose 1.4 µM)",49.5%
14,"N#Cc1c(O)c2c(-c3ccc(-c4ccccc4O)cc3)csc2[nH]c1=O + Cn1cc(/C=C2\C(=O)Nc3cccnc32)c2ccccc21 [GW441756] (first compound 2 µM, partner dose 0.4 µM)",88.1%
15,"NCC(=O)Nc1ccc(-n2nc(C(F)(F)F)cc2-c2ccc3c(ccc4ccccc43)c2)cc1 + O=C(O)C(=O)Nc1sc2c(c1C(=O)O)CCNC2 [TCS401] (first compound 1 µM, partner dose 1.66667 µM)",60.2%
16,"NCC(=O)Nc1ccc(-n2nc(C(F)(F)F)cc2-c2ccc3c(ccc4ccccc43)c2)cc1 + CCc1ccc(CCOc2ccc(CC3SC(=O)NC3=O)cc2)nc1 [pioglitazone] (first compound 1 µM, partner dose 2 µM)",82.6%
17,"O=C(Nc1ccccc1)c1cc([N+](=O)[O-])ccc1Cl + CC(C)CCN1c2nc(Nc3cc(F)c(O)c(F)c3)ncc2N(C)C(=O)C1C [BID1870] (first compound 2 µM, partner dose 0.2 µM)",170%
18,"O=C(O)c1ccc(-c2c[nH]c3ncc(-c4ccccc4)cc23)cc1C1CCCC1 + Oc1cc(-c2nc(-c3ccccc3)[nH]c2-c2ccncc2)ccc1Cl [L779450] (first compound 0.16 µM, partner dose 0.2 µM)",76.5%
19,"CN(C)S(=O)(=O)c1ccc2c(c1)/C(=C/c1cc3c([nH]1)CCCC3)C(=O)N2 + COc1ccc(COc2ccc(Cc3cnc(N)nc3N)cc2OC)cc1 [GW2580] (first compound 0.4 µM, partner dose 1 µM)",145%
20,"COc1ccc(COc2ccc(Cc3cnc(N)nc3N)cc2OC)cc1 + c1cc(-c2cnn3cc(-c4ccc(OCCN5CCCCC5)cc4)cnc23)ccn1 [Dorsomorphin] (first compound 1 µM, partner dose 0.4 µM)",110%
21,"COc1ccc(-c2ccc3c(N4CCOCC4)nc(N4C[C@@H](C)O[C@@H](C)C4)nc3n2)cc1CO + Oc1cc(-c2nc(-c3ccccc3)[nH]c2-c2ccncc2)ccc1Cl [L779450] (first compound 0.02 µM, partner dose 0.2 µM)",100%
22,"CCN(CC)CCCCNc1ncc2cc(-c3cc(OC)cc(OC)c3)c(NC(=O)NC(C)(C)C)nc2n1 + Cc1cc([N+](=O)[O-])ccc1NS(=O)(=O)c1cc(Cl)ccc1Cl [FH535] (first compound 0.1 µM, partner dose 1 µM)",99.9%
23,"O=S(=O)(c1ccccc1)N(CC(F)(F)F)c1ccc(C(O)(C(F)(F)F)C(F)(F)F)cc1 + Cc1cc([N+](=O)[O-])ccc1NS(=O)(=O)c1cc(Cl)ccc1Cl [FH535] (first compound 1.4 µM, partner dose 1 µM)",95.6%
24,"COc1cc2ncnc(Nc3ccc(Oc4ccccc4)cc3)c2cc1OC + O=C(O)C(=O)Nc1sc2c(c1C(=O)O)CCNC2 [TCS401] (first compound 2 µM, partner dose 1.66667 µM)",87.1%

# Random excerpt: two records from the list
row,Compound,cleaved PARP positive nuclei fraction
5,"NCC(=O)Nc1ccc(-n2nc(C(F)(F)F)cc2-c2ccc3c(ccc4ccccc43)c2)cc1 + O=C1NC(=O)/C(=C/c2ccc(-c3ccc(F)cc3O)o2)S1 [AS252424] (first compound 1 µM, partner dose 1 µM)",141%
21,"COc1ccc(-c2ccc3c(N4CCOCC4)nc(N4C[C@@H](C)O[C@@H](C)C4)nc3n2)cc1CO + Oc1cc(-c2nc(-c3ccccc3)[nH]c2-c2ccncc2)ccc1Cl [L779450] (first compound 0.02 µM, partner dose 0.2 µM)",100%
